# At least one peptide structure holds a part that was inferred or is arguable (an end, a ring closure or a residue).
# Experiments:
# [1] = test system: CA20948 (pancreatic) tumor, rich in somatostatin (SST-2) receptors; assay: In vivo fluorescence imaging of CA20948 tumor bearing rats; parameters: species or system male Lewis rats
# From the text: A non-invasive in vivo fluorescence imaging apparatus was employed to assess the efficacy of indocyanine green (ICG) in three different rat tumor cell lines of the inventive contrast agents developed for tumor detection in animal models. A LaserMax Inc. laser diode of nominal wavelength 780 nm and nominal power of 40 mW was used. The detector was a Princeton Instruments model RTE/CCD-1317-K/2 CCD camera with a Rodenstock 10 mm F2 lens (stock #542.032.002.20) attached. An 830 nm […] (CVI Laser Corp., part #F10-830-4-2) was mounted in front of the CCD input lens, such that only emitted fluorescent light from the contrast agent was imaged.
# Three tumor cell lines, DSL 6/A (pancreatic), Dunning R3327-H (prostate), and CA20948 (pancreatic), which are rich in somatostatin (SST-2) receptors were induced into male Lewis rats by solid implant technique in the left flank area (Achilefu et al., Invest. Radiology, 2000, pp. 479-485). Palpable masses were detected nine days post implant.
# (§1) The animals were anesthetized with xylazine:ketamine:acepromazine (1.5:1.5:0.5^v/v) at 0.8 ml/kg via intramuscular injection. The left flank was shaved to expose the tumor and surrounding surface area. A 21-gauge butterfly needle equipped with a stopcock connected to two syringes containing heparinized saline was placed into the tail vein of the rat. Patency of the vein was checked prior to administration of ICG. Each animal was administered a 0.5 ml dose of a 0.42 mg/ml solution of ICG in saline.
# The peptide, octreotate, is known to target somatostatin (SST-2) receptors. Therefore, the cyano-octreotates conjugate, Cytate 1, was prepared as described in Example 4. The pancreatic acinar carcinoma, CA20948, was induced into male Lewis rats as described in Example 9.
# as §1, with “Cytate 1 via the butterfly apparatus.” for “ICG.”, “1.0” for “0.42”, “Cytate 1” for “ICG”, “25%^(v/v) dimethylsulfoxide/water.” for “saline.”
# Using the CCD camera apparatus, dye localization in the tumor was observed. Usually, an image of the animal was taken pre-injection of contrast agent, and the pre-injection image was subsequently subtracted (pixel by pixel) from the post-injection images to remove background. However, the background subtraction was not done if the animal had been removed from the sample area and was later returned for imaging several hours post injection.
# [2] = test system: CA20948 rat pancreatic tumor cells over-expressing somatostatin receptor; assay: Fluorescence endoscopy of CA20948 tumor in GI tract; type: in vivo, Lewis rat; settings: endoscopy 60 minutes post-injection, excitation 780 nm, detection 830 nm
compound,measurement,setting,value
"C[C@@H](O)[C@H](NC(=O)[C@@H]1CSSC[C@H](NC(=O)[C@@H](Cc2ccccc2)NC(=O)CC[N+]2=C(/C=C/C=C/C=C/C=C3/N(CCC(=O)O)c4ccc5ccccc5c4C3(C)C)C(C)(C)c3c2ccc2ccccc32)C(=O)N[C@@H](Cc2ccc(O)cc2)C(=O)N[C@H](Cc2c[nH]c3ccccc23)C(=O)N[C@@H](CCCCN)C(=O)N[C@@H]([C@@H](C)O)C(=O)N1)C(=O)O [Cytate 1, monooctreotate-bisethylcarboxymethylindocyanine dye]",specificity for the SST-2 receptors in the CA20948 rat tumor model (images),"[1]; 0.5 ml of 1.0 mg/ml in 25% DMSO/water, tail vein",demonstrated the specificity
same,fluorescent image,[1]; 45 minutes post administration (FIG. 3b),"green and yellow areas in the left and right flanks and in the tail, however, there was a dark blue/blue green area in the left flank"
same,fluorescent image,[1]; 27 hours post administration (FIG. 4),only the left flank showed a blue/blue green fluorescent area
same,fluorescent image,[1]; one minute post administration (FIG. 3a),suggested the presence of the tumor in the left flank of the animal
same,fluorescence intensity in the tumor versus surrounding normal tissues,[2],much higher than in the surrounding normal tissues
